Measured values from article PMC11247735.
These are yes or no findings as the source states them, for the method shown. In cells and extracts the contact can be indirect. Some entries that bind do so weakly or less than the wild type. Tags and fused reporters may be left off the sequences shown.

T1: CD20 (Membrane Spanning 4-Domains A1) (human (endogenous in SU-DHL-2/R)) (UniProt P11836)
T1 sequence: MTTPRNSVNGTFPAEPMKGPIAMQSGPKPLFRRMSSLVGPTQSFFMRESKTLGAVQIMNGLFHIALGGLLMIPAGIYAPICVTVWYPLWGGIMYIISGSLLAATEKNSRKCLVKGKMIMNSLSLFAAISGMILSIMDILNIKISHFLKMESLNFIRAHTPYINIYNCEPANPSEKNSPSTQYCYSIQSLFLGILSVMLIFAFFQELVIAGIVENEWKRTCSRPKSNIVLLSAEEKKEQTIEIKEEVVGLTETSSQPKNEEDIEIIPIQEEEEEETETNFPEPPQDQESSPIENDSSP

T2: Histone deacetylase 8 (human (endogenous in SU-DHL-2/R)) (UniProt Q9BY41)
T2 sequence: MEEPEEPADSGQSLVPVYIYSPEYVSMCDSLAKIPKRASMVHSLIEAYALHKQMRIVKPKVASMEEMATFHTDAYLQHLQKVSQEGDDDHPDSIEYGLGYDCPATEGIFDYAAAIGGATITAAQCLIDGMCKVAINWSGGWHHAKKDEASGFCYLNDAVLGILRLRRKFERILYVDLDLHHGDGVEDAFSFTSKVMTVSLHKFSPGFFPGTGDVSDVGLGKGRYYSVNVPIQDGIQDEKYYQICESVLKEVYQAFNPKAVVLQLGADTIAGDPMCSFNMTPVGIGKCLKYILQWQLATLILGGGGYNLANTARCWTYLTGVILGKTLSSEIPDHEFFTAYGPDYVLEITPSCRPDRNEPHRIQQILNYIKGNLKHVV


Legend:
[1] = target: T1, CD20 (Membrane Spanning 4-Domains A1) (human (endogenous in SU-DHL-2/R)); test: co-IP; endogenous proteins in SU-DHL-2/R cells; one partner immunoprecipitated with its antibody, the other detected by western blotting; control immunoprecipitation with IgG
[2] = target: T2, Histone deacetylase 8 (human (endogenous in SU-DHL-2/R)); test: as above

Row | binding [1] | binding [2] | Binder
1 | binds | – | Histone deacetylase 8 (enzyme, UniProt Q9BY41 1-377) MEEPEEPADSGQSLVPVYIYSPEYVSMCDSLAKIPKRASMVHSLIEAYALHKQMRIVKPKVASMEEMATFHTDAYLQHLQKVSQEGDDDHPDSIEYGLGYDCPATEGIFDYAAAIGGATITAAQCLIDGMCKVAINWSGGWHHAKKDEASGFCYLNDAVLGILRLRRKFERILYVDLDLHHGDGVEDAFSFTSKVMTVSLHKFSPGFFPGTGDVSDVGLGKGRYYSVNVPIQDGIQDEKYYQICESVLKEVYQAFNPKAVVLQLGADTIAGDPMCSFNMTPVGIGKCLKYILQWQLATLILGGGGYNLANTARCWTYLTGVILGKTLSSEIPDHEFFTAYGPDYVLEITPSCRPDRNEPHRIQQILNYIKGNLKHVV
2 | – | binds | CD20 (Membrane Spanning 4-Domains A1) (protein, UniProt P11836 1-297) MTTPRNSVNGTFPAEPMKGPIAMQSGPKPLFRRMSSLVGPTQSFFMRESKTLGAVQIMNGLFHIALGGLLMIPAGIYAPICVTVWYPLWGGIMYIISGSLLAATEKNSRKCLVKGKMIMNSLSLFAAISGMILSIMDILNIKISHFLKMESLNFIRAHTPYINIYNCEPANPSEKNSPSTQYCYSIQSLFLGILSVMLIFAFFQELVIAGIVENEWKRTCSRPKSNIVLLSAEEKKEQTIEIKEEVVGLTETSSQPKNEEDIEIIPIQEEEEEETETNFPEPPQDQESSPIENDSSP
